From PubChem BioAssay AID504444 (National Center for Advancing Translational Sciences (NCATS), 2011)
Several values for one entry are separate records, joined by “and”; a condition that tells them apart may be missing. Equal entries are not always repeated. The whole screen tested about 360,000 compounds, of which about 7,500 (2.1%) were called active. The shares of active, inactive and inconclusive entries below differ from those in the screen. The call rests on the fitted dose curve; in most records, active means well fitted inhibition curve with a large enough effect; inconclusive means small, poorly fitted or top-dose-only effect, or effect the other way; inactive means flat fitted curve, though single readings scatter. Potencies beside an inconclusive call are fits to weak or partial responses and may not hold up.

Assay: Nrf2 qHTS screen for inhibitors; further: nearly all actives have a fitted effect of over 60% in size
Details: A549 ARE-Fluc reporter, luciferase luminescence, 18-24 h; series mostly up to 46 µM
Procedure, shortened: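 In this cell-based qHTS, ARE-driven firefly luciferase in A549 cells reports Nrf2 activity; the luminescent signal after BugLite lysis is the measured value, with a prior CellTiter-Fluor read for cell health.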
Potency means the concentration at half of the fitted maximal effect.

For COc1ccc(C(=O)NC(=O)Nc2ncccc2C)cc1, which Potency is on record?
Its Potency is inconclusive: 14.6 µM [activator, single point].

With CC(C)Cn1c(N)c(C(=O)COC(=O)/C=C/c2cccs2)c(=O)n(C)c1=O as the molecule, how does the Potency read?
Its Potency is inconclusive: 29.1 µM [falling, single point].

Which Potency does the source give for CN(N=O)c1ccc(C=C2C=Cc3ccccc32)cc1 here?
The Potency was inconclusive: 2.31 µM [activator, full curve].

For Cc1ccc(NC(=O)CNC(=O)c2ccccc2F)cc1Cl, which Potency is on record?
The Potency was inconclusive: 13 µM [activator, partial curve].

With CS(=O)(=O)c1nc(-c2ccc(F)cc2)cc(C(F)(F)F)n1 as the molecule, how does the Potency read?
The Potency was inconclusive: 29.1 µM [falling, single point].

With CCCOc1ccc(N2C(=O)CC(SC(=NCC)Nc3cccc(F)c3)C2=O)cc1 (stereo not drawn) as the molecule, how does the Potency read?
The Potency was inconclusive: 29.1 µM [falling, single point].

For CC(Sc1nc(N2CCOCC2)c2c(c1C#N)CC(C)(C)OC2)C(=O)Nc1ccccc1 (stereo not drawn), which Potency is on record?
The Potency was inconclusive: 8.2 µM [falling, partial curve].

For O=C(CC1CCCC1)NNC(=O)c1ccc(Br)cc1, which Potency is on record?
The Potency was inconclusive: 16.4 µM [activator, single point].

For CCOc1ccc(N=c2cc(-c3ccc(OC)cc3)oc3ccccc23)cc1, which Potency is on record?
Its Potency is inconclusive: 18.4 µM [falling, single point].

For O=c1c2ccccc2nnn1COc1ccc(Cl)cc1Br, which Potency is on record?
Its Potency is inconclusive: 16.4 µM [activator, single point].

Which Potency does the source give for COc1cccc(C2=Nn3c(nnc3-c3cccc(OC)c3OC)SC2)c1 here?
Its Potency is “inactive”.

For O=C(NCc1ccco1)c1ccc(CS(=O)Cc2ccc(Cl)cc2)o1 (stereo not drawn), which Potency is on record?
Its Potency is “inactive”.

With COC(=O)c1[nH]c2ccc(C)cc2c1NC(=O)CN1CCN(c2ccccc2)CC1 as the molecule, how does the Potency read?
Its Potency is active: 18.4 µM.

For Oc1cc2c(cc1O)[C@H]1c3ccc(O)c(O)c3OC[C@@]1(O)C2, which Potency is on record?
The Potency was inconclusive: 23.1 µM [falling, single point].

Which Potency does the source give for CCOC(=O)c1c(-c2ccc(C)o2)csc1NC(=S)NC(=O)c1cccs1 here?
Its Potency is “inactive”.

With COc1ccccc1CCNC(=O)C(=O)NCC1OCCN1S(=O)(=O)c1ccc(C)cc1 (stereo not drawn) as the molecule, how does the Potency read?
The Potency was inconclusive: 5.17 µM [falling, full curve, poor fit].

With Cc1nc2ccc(NC(=O)c3ccco3)cc2s1 as the molecule, how does the Potency read?
The Potency was inconclusive: 13 µM [activator, partial curve].

For CCOc1ccccc1NC(=O)CSc1nc2c(oc3ccccc32)c(=O)n1C(C)C, which Potency is on record?
Its Potency is “inactive”.

For CCOC(=O)c1ccc(NC(=O)c2n[nH]c(=O)c3ccccc23)cc1, which Potency is on record?
The Potency was inconclusive: 18.4 µM [activator, single point].

With CN(C(=O)COc1ncnc2sccc12)c1ccccc1 as the molecule, how does the Potency read?
Its Potency is inconclusive: 2.59 µM [falling, single point].

With Fc1cccc(C2CC(c3cccc(Br)c3)Nc3nnnn32)c1 (stereo not drawn) as the molecule, how does the Potency read?
The Potency was inconclusive: 29.1 µM [falling, single point].

Which Potency does the source give for Cc1ccc(C)c(N2CCN(S(=O)(=O)c3ccc(-c4cc(C(F)(F)F)on4)s3)CC2)c1 here?
Its Potency is inconclusive: 0.0366 µM [falling, full curve, poor fit].

Which Potency does the source give for CCCCC(C(=O)O)C(C)CC(=O)Nc1ccn(-c2ccccc2)n1 (stereo not drawn) here?
The Potency was inconclusive: 4.11 µM [activator, single point].

Which Potency does the source give for COc1ccc(C(=O)Nc2ccccc2-c2nnn(CC(N)=O)n2)cc1 here?
Its Potency is inconclusive: 29.1 µM [falling, single point].

Which Potency does the source give for C=CCn1c(=O)c2ccc(C(=O)NCc3ccccc3)cc2n(Cc2ccc(C)cc2)c1=O here?
Its Potency is inconclusive: 6.51 µM [activator, single point].

For COc1ccc(S(=O)(=O)Nc2ccc(Oc3ncccn3)c(Cl)c2)cc1, which Potency is on record?
The Potency was inconclusive: 20.6 µM [falling, partial curve, poor fit].

With COc1ccc(N2CCCC2)c(NC(=O)c2ccc(Br)o2)c1 as the molecule, how does the Potency read?
The Potency was “inactive”.

With CC(=O)OCC(=O)[C@@]1(O)CC[C@H]2[C@@H]3CCC4=CC(=O)CC[C@]4(C)[C@H]3[C@@H](O)C[C@@]21C as the molecule, how does the Potency read?
Its Potency is active: 51.7 nM and active: 41.1 nM.

For CCC(C)NC(=O)CSc1nc2ccsc2c(=O)n1-c1ccc(OC)cc1 (stereo not drawn), which Potency is on record?
The Potency was inconclusive: 18.4 µM [falling, single point].

Which Potency does the source give for CC1CC(C)CN(S(=O)(=O)c2ccc(Cl)cc2)C1 (stereo not drawn) here?
Its Potency is inconclusive: 10.3 µM [falling, partial curve].

With CCc1ccccc1OCC(=O)Nc1ccc2c(c1)OCCO2 as the molecule, how does the Potency read?
Its Potency is inconclusive: 18.4 µM [activator, partial curve].

Which Potency does the source give for Oc1ccc2ccccc2c1CN1CCN(c2ccccc2F)CC1 here?
Its Potency is “inactive”.

For CC(/C=C/c1ccccc1)=N/NC(=O)CNC(=O)c1ccccc1F, which Potency is on record?
The Potency was inconclusive: 25.9 µM [falling, partial curve, poor fit].

For CCOc1ccc(CN(C)CC(=O)Nc2cccc(C)c2)cc1OC, which Potency is on record?
The Potency was inconclusive: 29.1 µM [falling, single point].

Which Potency does the source give for Cc1ccc(OCCN2C(=O)c3ccccc3C2=O)cc1 here?
Its Potency is inconclusive: 25.9 µM [activator, single point].

With Cc1ccsc1CN(Cc1ccco1)C(=O)c1ccc(Cl)cc1 as the molecule, how does the Potency read?
Its Potency is inconclusive: 16.4 µM [falling, partial curve].

With O=C(Nc1nnc(Cc2ccccc2)s1)c1cccs1 as the molecule, how does the Potency read?
Its Potency is inconclusive: 9.2 µM [activator, partial curve].

Which Potency does the source give for COc1ccc(S(=O)(=O)Nc2ccccc2C(=O)Nc2nc(-c3ccc(F)cc3)cs2)cc1OC here?
The Potency was inconclusive: 20.6 µM [falling, partial curve, poor fit].

Which Potency does the source give for Cc1ccc(-n2nnc(-c3ccnc4ccccc34)n2)cc1 here?
The Potency was inconclusive: 29.1 µM [activator, single point].

With Cc1ccc(NC(=O)c2cc3c(s2)CCCC3)cc1 as the molecule, how does the Potency read?
Its Potency is inconclusive: 8.2 µM [activator, partial curve].

Which Potency does the source give for O=C1CN(CC(=O)N2CCCCC2)c2ccccc2O1 here?
The Potency was “inactive”.

Which Potency does the source give for Cc1cc(S(=O)(=O)Nc2cc3c(cc2Cl)n(C)c(=O)c(=O)n3C)ccc1F here?
The Potency was inconclusive: 5.17 µM [falling, full curve, poor fit].

With CC(=O)N1CCN(c2ccc(NC(=O)c3ccc([N+](=O)[O-])cc3Cl)cc2)CC1 as the molecule, how does the Potency read?
The Potency was inconclusive: 0.517 µM [falling, partial curve, poor fit].
